The target in the test is N-terminal Kv1.3-TurboID (V5-TurboID-Kv1.3 fusion) (human) (UniProt P22001). Put plainly: co-IP; NP40 lysates of N-terminal Kv1.3-TurboID Jurkat T-cells, 1 μg V5 antibody overnight at 4°C, Protein G Dynabeads; western blot for STIM1, CD3E, V5; untransduced Jurkat T-cells as control. For orientation: A western blot detects proteins with antibodies after separation by electrophoresis.

No constants are given. Whether binding was seen depends on the method and setting. In cells and extracts the contact can be indirect. Binding calls can cover weak binding; strength is not graded here.

As to CD3E (from UniProt P07766 23-207), the binding result is recorded as “no binding”.

STIM1 (from UniProt Q13586 23-685): the binding result is recorded as “binds”.

The values are drawn from PMC12989817.
